These are yes or no findings as the source states them, for the method shown. Binding seen in cells or lysates may run through a third protein. Some binding calls cover weakened binding; strength is not graded here.

Chains of the proteins cited; added tags and fusions are not shown. Residues count along the entry.
UniProt Q13444, residues 207-863: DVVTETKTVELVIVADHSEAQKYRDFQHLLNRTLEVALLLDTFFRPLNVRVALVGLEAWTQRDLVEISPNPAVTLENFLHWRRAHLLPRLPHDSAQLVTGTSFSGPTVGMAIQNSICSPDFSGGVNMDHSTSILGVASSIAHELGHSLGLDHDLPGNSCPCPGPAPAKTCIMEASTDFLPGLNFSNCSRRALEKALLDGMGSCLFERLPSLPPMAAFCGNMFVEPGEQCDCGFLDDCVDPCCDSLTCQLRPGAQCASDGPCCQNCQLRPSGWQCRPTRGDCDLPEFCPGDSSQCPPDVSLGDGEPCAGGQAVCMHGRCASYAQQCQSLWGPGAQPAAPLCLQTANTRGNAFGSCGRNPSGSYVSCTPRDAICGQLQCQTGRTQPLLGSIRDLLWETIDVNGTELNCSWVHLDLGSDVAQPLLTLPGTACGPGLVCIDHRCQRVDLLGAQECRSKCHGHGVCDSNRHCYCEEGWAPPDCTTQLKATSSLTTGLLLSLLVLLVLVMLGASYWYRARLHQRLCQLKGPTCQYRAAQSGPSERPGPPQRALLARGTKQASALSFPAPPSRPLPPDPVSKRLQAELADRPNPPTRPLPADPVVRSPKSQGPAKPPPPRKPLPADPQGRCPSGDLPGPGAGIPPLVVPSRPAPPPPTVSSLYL

This test has as its target Disintegrin-metalloproteinase 15 (ADAM15) (human (endogenous in A549 and H1299)) (UniProt Q13444). Kind of test: co-IP; endogenous proteins in lysates of parental A549 and H1299 cells; 1 µg IgG or specific monoclonal antibody, 4 °C 24 h, protein G beads, washed three times with RIPA buffer, western blot; also control and CD151-knockdown H1299 cells (Fig. 8E). On the technique in general: A western blot detects proteins with antibodies after separation by electrophoresis.

B1: Tetraspanin CD151 (protein, UniProt P48509 1-253)
chain: MGEFNEKKTTCGTVCLKYLLFTYNCCFWLAGLAVMAVGIWTLALKSDYISLLASGTYLATAYILVVAGTVVMVTGVLGCCATFKERRNLLRLYFILLLIIFLLEIIAGILAYAYYQQLNTELKENLKDTMTKRYHQPGHEAVTSAVDQLQQEFHCCGSNNSQDWRDSEWIRSQEAGGRVVPDSCCKTVVALCGQRDHASNIYKVEGGCITKLETFIQEHLRVIGAVGIGIACVQVFGMIFTCCLYRSLKLEHY
B1: the binding result is recorded as “binds”.

Source of the values: article PMC9124216.
